Here are results for 2 molecules from PubChem BioAssay AID210 (DTP/NCI, 2004).

For the test, the system named is CD2F1 mice, ip Colon 26 adenocarcinoma, median survival T/C. Put plainly: NCI In Vivo Anticancer Drug Screen. Data for tumor model Colon 26 Adenocarcinoma (intraperitoneal) in CD2F1 (CDF1) mice. The settings on record: T/C endpoint: median survival time, schedule: Q04DX003 (ip), higher T/C = longer survival. On the procedure: The antitumor activity of compounds was measured in mice bearing transplantable tumors. Survival or tumor size were measured and the results are expressed as the measurement made in the treated group (T) divided by the measurement made in the vehicle treated control group (C). The tumor model used in this assay is Colon 26 Adenocarcinoma (intraperitoneal) in CD2F1 (CDF1) mice

The list is a part of this screen's results and no random one: it gathers some chemical classes. Not every dose and run of a compound is shown. T/C gives the treated animals as a percentage of the vehicle group. Some doses have a count of surviving animals in place of a T/C: the source holds a T/C of zero for them, seemingly a mark for toxic or unscored doses. Counts of survivors are from the toxicity check (mostly the fifth day) where no day follows; animals may have died later. Schedules are NCI's codes, taken here to give the interval after Q, in days (D) or hours (H), and the number of doses after X. Where survival is the endpoint, the PubChem record calls one and a half times the control and up active, and a quarter to a half above the control has no call in these data; cut-offs in other NCI protocols can differ. Some entries were tested several times; the values are given in rising order.

As for `Nc1cc([As]=O)ccc1O` (stereo unspecified), the T/C (dose: 6.25 mg/kg/injection, vehicle: saline with Tween-80) is 109 % of control; the T/C (dose: 12.5 mg/kg/injection, vehicle: saline with Tween-80) is 101 % of control; the T/C (dose: 25.0 mg/kg/injection, vehicle: saline with Tween-80) is 118 % of control; the T/C (dose: 50.0 mg/kg/injection, vehicle: saline with Tween-80) was 116 % of control. Further, where the note is “dose: 100.0 mg/kg/injection, vehicle: saline with Tween-80”, the survivor count was 0 of 10.

In the case of `CC(=O)OC(SC(OC(C)=O)C(Cl)(Cl)Cl)C(Cl)(Cl)Cl` (stereo unspecified), the T/C reads like this: (dose: 12.5 mg/kg/injection, vehicle: Klucel (hydroxypropylcellulose) (HPC)) 91 and 102 % of control; (dose: 25.0 mg/kg/injection, vehicle: Klucel (hydroxypropylcellulose) (HPC)) 94 and 102 % of control; (dose: 50.0 mg/kg/injection, vehicle: Klucel (hydroxypropylcellulose) (HPC)) 87 and 104 % of control; (dose: 100.0 mg/kg/injection, vehicle: Klucel (hydroxypropylcellulose) (HPC)) 93 and 102 % of control; (dose: 200.0 mg/kg/injection, vehicle: Klucel (hydroxypropylcellulose) (HPC)) 93 and 104 % of control; (dose: 400.0 mg/kg/injection, vehicle: Klucel (hydroxypropylcellulose) (HPC)) 89 and 102 % of control.
